# Test results from PubChem BioAssay AID1671190 (National Center for Advancing Translational Sciences (NCATS), 2021).
# Amino acid sequences for entries named in this document (tags omitted). A change or cut given only in a name is not applied to a line headed by its entry.
# UniProt P18054: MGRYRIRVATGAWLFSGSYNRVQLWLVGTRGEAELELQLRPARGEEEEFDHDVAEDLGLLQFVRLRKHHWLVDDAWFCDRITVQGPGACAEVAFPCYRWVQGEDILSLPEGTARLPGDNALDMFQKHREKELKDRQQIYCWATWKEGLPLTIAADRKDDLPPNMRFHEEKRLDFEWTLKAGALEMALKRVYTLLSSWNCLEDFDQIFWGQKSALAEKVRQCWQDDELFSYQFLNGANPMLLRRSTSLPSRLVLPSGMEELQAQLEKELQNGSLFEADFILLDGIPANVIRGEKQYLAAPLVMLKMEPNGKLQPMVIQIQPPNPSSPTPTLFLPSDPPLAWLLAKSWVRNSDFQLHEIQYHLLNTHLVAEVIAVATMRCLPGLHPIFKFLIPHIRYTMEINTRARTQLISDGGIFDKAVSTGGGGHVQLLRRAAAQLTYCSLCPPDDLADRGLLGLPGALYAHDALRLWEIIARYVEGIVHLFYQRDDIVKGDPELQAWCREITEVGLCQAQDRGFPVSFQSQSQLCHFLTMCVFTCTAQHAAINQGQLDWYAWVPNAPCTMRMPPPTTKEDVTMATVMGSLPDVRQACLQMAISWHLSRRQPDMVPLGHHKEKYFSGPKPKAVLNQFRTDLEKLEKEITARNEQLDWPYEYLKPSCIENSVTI
# The whole screen tested about 580,000 compounds, of which about 6,100 (1.1%) were called active. Inconclusive results, whose numbers are uncertain, are shown with a selection of clear calls. The call rests on the fitted dose curve; in most records, active means well fitted inhibition curve with a large enough effect; inconclusive means small, poorly fitted or top-dose-only effect, or another doubt; inactive means no such curve, though single readings can be large or run the other way. Potencies beside an inconclusive call are fits to weak or partial responses and may not hold up. Square brackets hold non-standard residues; d marks the D form. Peptide text beside a SMILES is read from it. * marks the point of attachment. ξ: configuration not given here. Cbz = O=C(OCc1ccccc1)*; ξA = CC(N)C(=O)O
# Biological target: Polyunsaturated fatty acid lipoxygenase ALOX12 (Homo sapiens) (UniProt P18054)
# Test: Primary qHTS assay for inhibitors of human arachidonate 12S-lipoxygenase (ALOX12): Round 2
# Details: purified 12hLO, xylenol orange hydroperoxide absorbance; activity change, negative = inhibition: at 108 µM (top of the series) unless noted
# How it was run: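 Purified human 12hLO at 150 nM in 25 mM Hepes, 0.01% Triton X-100, pH 7.0, preincubated 15 min at room temperature with compound. Reaction started with 40 uM arachidonic acid, 30 min at room temperature. Hydroperoxide measured by Fe-xylenol orange, 573/405 nm absorbance ratio.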
# On the % scale 0 is the no-effect control and ±100 the full control effect; potency means the concentration at half of the fitted maximal effect.
Compound,"activity change, negative = inhibition",Potency
O=C(CSc1nnc(-c2ccc(Cl)cc2)o1)N1CCC(c2ccccc2)=N1,inactive: -7.14%,–
c1ccc(CNc2cc(-c3cc(N4CCCCC4)ncn3)c3cc[nH]c3n2)nc1,inactive: 46.9%,–
Cn1nc(C2CC2)cc1NC(=O)C1(C)CCN1C(=O)c1ccccc1CCc1ccccc1 (centres undefined),inactive: 1.73%,–
CC(=O)c1c(N2CCOCC2)nc2ccc(Br)cc2c1-c1ccccc1,–,"inconclusive: 50.1 µM [inhibitor, partial curve, poor fit]"
CSCCC(NS(=O)(=O)c1ccccc1F)C(=O)NCC(C)(C)N1CCOCC1 (centres undefined),inactive: 32%,–
Cc1ccc(N(C(=O)c2ccc(C(C)(C)C)cc2)C2C=CS(=O)(=O)C2)cc1Cl (centres undefined),inactive: -19.5%,–
CC(NC(=O)CNC(=O)OCc1ccccc1)C(=O)NCC(=O)O (stereo not drawn) (Cbz-Gly-[ξA]-Gly-OH),–,"inconclusive: 50.1 µM [inhibitor, single point]"
COc1ccc(C(=O)N2CCC3(CC2)NC(=O)N(Cc2ccc(F)cc2)C3=O)c(C)c1,inactive: 11.1%,–
CCOc1ccc(NC(=O)CN(C)C(=O)Cc2c[nH]c3ccccc23)cc1OCC,–,"inconclusive: 70.8 µM [inhibitor, partial curve, poor fit]"
O=C(NCc1nnnn1-c1ccc(F)cc1)c1ccc([N+](=O)[O-])o1,–,"inconclusive: 0.355 µM [inhibitor, full curve, poor fit]"
CC1(C)CCN2CCC(C)(C)c3c(O)ccc1c32,–,"inconclusive: 0.447 µM [inhibitor, full curve, poor fit]"
CC(C)(C)c1cc(CN2CCCC(O)C2)c(O)c(C(C)(C)C)c1 (centres undefined),–,"inconclusive: 39.8 µM [inhibitor, partial curve]"
COc1ccc(Cl)cc1C(=O)Nc1nnn(C)n1,–,"inconclusive: 44.7 µM [inhibitor, partial curve, poor fit]"
Cc1ccccc1NCC(=O)N/N=C\c1ccc([N+](=O)[O-])s1,–,"inconclusive: 44.7 µM [inhibitor, partial curve, poor fit]"
Cc1cc(NC(=O)c2ccc(Cl)cc2)ccc1NC(=O)c1ccccc1Cl,inactive: 88%,–
CS(=O)(=O)N1CCN(C2CCNCC2)C(=O)C1,inactive: -0.56% [at 6.33 µM],–
CCCCn1c(-c2cc(Cl)ccc2OC)n[nH]c1=S,–,"inconclusive: 1.78 µM [inhibitor, full curve, poor fit]"
CC1CCCN(Cc2c(C(=O)N3CCc4ccccc4C3)nc3ccc(Cl)cn23)C1 (centres undefined),inactive: -6.49%,–
C[C@@H]1CN([C@@H](C)CO)C(=O)c2cc(NS(C)(=O)=O)ccc2O[C@@H](C)CCCCO[C@H]1CN(C)C(=O)Nc1ccc2c(c1)OCO2,–,"inconclusive: 89.1 µM [inhibitor, single point]"
CCOc1ccc(CN(C)CC(=O)Nc2ccc(Cl)c(Cl)c2)cc1OC,inactive: -16.9%,–
CC(C)n1c(SCC(=O)Nc2ccc(F)cc2)nc2c(oc3ccccc32)c1=O,inconclusive: -30.3% [inhibitor],–
CC(C)(C)NC(=S)NCCc1ccccc1,–,"inconclusive: 89.1 µM [inhibitor, partial curve, poor fit]"

# Individual results from the entries so far:
# CC1(C)CCN2CCC(C)(C)c3c(O)ccc1c32 | Potency: inconclusive: 0.447 µM [inhibitor, full curve, poor fit]
# CSCCC(NS(=O)(=O)c1ccccc1F)C(=O)NCC(C)(C)N1CCOCC1 (centres undefined) | activity change, negative = inhibition: inactive: 32%
# Cc1cc(NC(=O)c2ccc(Cl)cc2)ccc1NC(=O)c1ccccc1Cl | activity change, negative = inhibition: inactive: 88%

# Remaining list, next part

Compound,"activity change, negative = inhibition",Potency
Cc1cc2nc(SCC(=O)Nc3ccc(Br)cc3F)[nH]c(=O)c2[nH]1,–,"inconclusive: 70.8 µM [inhibitor, single point]"
COc1ccc(C(=O)c2c3ccccc3[n+]([O-])n2CCCN)cc1,–,"inconclusive: 89.1 µM [inhibitor, single point]"
Cc1cc(NC(=O)c2ccccc2F)ncc1NC(=O)c1cccs1,inactive: -6.31%,–
OC1(CN2CCN(C(c3ccccc3)c3ccccc3)CC2)CNCCOC1 (centres undefined),–,"inconclusive: 10 µM [inhibitor, full curve]"
Cc1ccc(C(=O)Nc2ccccc2)cc1NC(=O)CC(C)(C)CC(=O)O,inactive: -29%,–
O=C(NCC1(COc2cnccn2)C[C@@H](O)[C@@H](O)C1)Nc1cccnc1 (some centres undefined),–,active: 25.1 µM
CC1=C2C3OC(=O)C(C)C3CCC2(C)C=CC1=NO (centres undefined),inactive: -7.56%,–
CC1(Cc2c(Cl)cccc2Cl)C(=O)Nc2cc(-c3ccccc3Cl)ccc21 (centres undefined),–,"inconclusive: 50.1 µM [inhibitor, single point]"
Cc1cccc(NC(=O)c2cc(NC(=O)C3CCCCC3C(=O)O)ccc2N2CCCCC2)c1 (centres undefined),inactive: -14.9%,–
COC(=O)c1[nH]c2ccc(C)cc2c1NC(=O)CN1CCc2cc(OC)c(OC)cc2C1,inactive: -8.96%,–
COc1ccc(CC(=O)Nc2ccccc2NC(=O)Cc2ccc(OC)cc2)cc1,–,"inconclusive: 112 µM [inhibitor, single point]"
COc1ccc(-n2nc3c(c2NC(=O)COc2ccccc2F)CS(=O)(=O)C3)cc1,–,"inconclusive: 79.4 µM [inhibitor, partial curve, poor fit]"
CN(CC1CCOC1)S(=O)(=O)c1ccc(Cl)cc1 (centres undefined),inactive: 28.7%,–
COc1ccc2c(C)c(CC(=O)NCc3ccc(F)cc3)c(=O)oc2c1C,–,"inconclusive: 100 µM [inhibitor, single point]"
COc1ccc2[nH]c(=O)c(CN(Cc3ccc(C)cc3)Cc3nnnn3CC3CCCO3)cc2c1 (centres undefined),–,"inconclusive: 44.7 µM [inhibitor, partial curve, poor fit]"
CC1(C(=O)NS(=O)(=O)c2ccccc2C(F)(F)F)CCN1C(=O)c1cccc(F)c1 (centres undefined),–,"inconclusive: 70.8 µM [inhibitor, partial curve, poor fit]"
CCCCN(Cc1ccccc1)c1ccc(NS(=O)(=O)c2ccccc2Cl)cc1C(=O)O,–,"inconclusive: 39.8 µM [inhibitor, partial curve, poor fit]"
Cc1cc(=O)[nH]c(SCC(=O)c2c(N)n(C)c(=O)n(C)c2=O)n1,–,"inconclusive: 44.7 µM [inhibitor, partial curve, poor fit]"
CCOC(=O)c1c(C)[nH]c(C(=O)Nc2cc(OCC)c(N3CCOCC3)cc2OCC)c1C,inactive: 0.731%,–
CC1CCCC(C)N1C(=O)CNCc1ccc2c(c1)OCO2 (centres undefined),–,"inconclusive: 0.501 µM [inhibitor, full curve, poor fit]"
CCOC(=O)c1[nH]c(C)c(CCC(=O)Nc2cc(C)c(Cl)cc2OC)c1C,inactive: 0.0116%,–
COc1ccc(-c2cc(NC=O)c3ncc(-c4ccc(OC)c(OC)c4)n3c2)cc1,–,"inconclusive: 39.8 µM [inhibitor, partial curve]"
